Laboratory results published in patent publication US5721213A, “Peptides, active as inhibitors of platelet aggregation” (Nippon Steel Corporation, priority 1993, dated 1998).
At least one peptide structure holds a part that was inferred or is arguable (an end, a ring closure or a residue). Non-standard residues stand in square brackets, D forms with d. Residues, ends and D or L forms follow the SMILES beside them. No end group written: not given here.

Legend:
platelet aggregation = conditions: 46-50 μM, concentration-dependent; cited from earlier work
[1] = system: platelet fraction for storage; experiment: protection of platelet fraction during storage; format: cell-based, Hartley guinea pigs
[2] = system: blood coagulation in extracorporeal circulation systems; experiment: dog hemodialysis model (extracorporeal circulation); format: in vivo; conditions: beagle, 10 mg/dog injected over 1 hour from the arterial side

N=C(N)NCCC[C@H](N)C(=O)NCC(=O)N[C@@H](CC(=O)O)C(=O)N[C@@H](CO)C(=O)O [Comparative Example 2, Arg--Gly--Asp--Ser--OH]
inhibition of platelet aggregation (platelet aggregation): 80-90%

O=C(O)C[C@H](NC(=O)CNC(=O)[C@H]1CCCN1C(=O)[C@H](CO)NC(=O)[C@@H]1CCCN1)C(=O)N[C@@H](Cc1c[nH]c2ccccc12)C(=O)O [Example 28, Pro-Ser-DPro-Gly-Asp-Trp-OH] (H-PS[dP]GDW-OH)
decrease in platelet count during storage ([1]; guinea pig platelet fraction, storage bag, shaking at room temperature): significant inhibitory effect on the decrease in platelet count
aggregation activity of platelets remaining after storage ([1]; guinea pig platelets, after 48 hour storage): at least 60%

PSPGDW-OH [Example 19, Pro-Ser-Pro-Gly-Asp-Trp-OH]
inhibition of blood coagulation (increase in the perfusion pressure) [2]: blood coagulation was obviously inhibited
